Test results as given in PubChem BioAssay AID1439 (NMMLSC, 2008).
Screen size: about 220,000 compounds; about 770 (0.35%) were called active. The inconclusive results got no clear call from the source; some entries with a clear call stand among them for comparison. Rule as the data show it: active = binding response below about 49% or above about 150%; inconclusive = no clear call, values can overlap the other calls; inactive = in between.

Chains of the proteins cited; added tags and fusions are not shown.
UniProt P09471, whole entry, looked up: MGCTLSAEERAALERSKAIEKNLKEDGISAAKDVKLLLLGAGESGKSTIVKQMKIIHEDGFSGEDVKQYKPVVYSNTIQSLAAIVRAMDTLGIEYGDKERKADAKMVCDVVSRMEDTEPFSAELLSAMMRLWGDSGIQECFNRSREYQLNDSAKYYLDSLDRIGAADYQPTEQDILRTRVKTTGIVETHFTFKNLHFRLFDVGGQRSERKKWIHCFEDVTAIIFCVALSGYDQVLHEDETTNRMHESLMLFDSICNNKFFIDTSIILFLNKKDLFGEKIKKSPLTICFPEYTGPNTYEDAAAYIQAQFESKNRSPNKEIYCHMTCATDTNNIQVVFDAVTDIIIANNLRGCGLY

target: Guanine nucleotide-binding protein G(o) subunit alpha (Homo sapiens) (UniProt P09471); assay: RGS7-Galphao binding modulators, primary screen, biochemical, multiplexed bead flow cytometry (AID 1439); details: at 10 µM, actives lie on both sides;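 also: fluorescent Galphao held in activated GDP-AlF4 state binding bead-coupled RGS7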

| Structure (SMILES) | binding response (% of control) |
| --- | --- |
| Cc1ccc(NC(=O)CCn2cc(C(F)(F)F)ccc2=O)cc1 | inconclusive: 141% |
| CCCN1CCC(NCc2cn(C)nc2-c2ccc(Oc3ccccc3)cc2)CC1 | inconclusive: 97.8% |
| CC1=C(C(=O)NC(C)c2ccccc2)C2(CCC(C)CC2)OC1=O (stereo not given) | inconclusive: 98.1% |
| COc1ccc(C2/C=C\CN(C(=O)NC34CC5CC(CC(C5)C3)C4)CC(=O)N2Cc2ccc(F)cc2)cc1 (stereo not given) | inconclusive: 122% |
| Nc1[nH]ncc1-c1ccccc1 | inactive: 87.3% |
| CN(C(=S)NC(=O)c1ccc(Br)o1)c1ccccc1 | inactive: 89.7% |
| CC[N+](C)(CC)CC(=O)OCC1C(C)C=C(C)CC1C (stereo not given) | inconclusive: -159% |
| CCc1ccc(NC(=O)c2onc(C)c2Cl)cc1 | inactive: 109% |
| CCN1CCN(C(c2ccccc2)c2nnnn2Cc2ccccc2)CC1 (stereo not given) | inactive: 100% |
| CC(C)CCNC(=O)C1CC(c2cccc(F)c2)=NO1 (stereo not given) | inconclusive: 73.5% |
| O=C(COC(=O)c1cccnc1)Nc1ccc2c(c1)OCO2 | inactive: 104% |
| Cc1noc(C)c1C(=O)NCc1ccccc1Br | inconclusive: 58.9% |
| Cc1cc(N2CCN(Cc3nc(-c4ccc(Cl)cc4)oc3C)CC2)cc(C)n1 | inconclusive: 99.1% |
| CCCOc1ccc(/C(O)=C2/C(=O)C(=O)N(CCCn3ccnc3)C2c2ccc(C)o2)cc1 (stereo not given) | inconclusive: 99.2% |
| Cc1cccc2nc(COc3ccc4ccccc4c3Br)cn12 | inconclusive: 42.7% |
| O=c1cc(CN2CCN(Cc3ccccc3)CC2)c2cc3c(cc2o1)CCC3 | inconclusive: 107% |
| O=C(Cc1ccc([N+](=O)[O-])cc1)c1ccc(O)cc1O | inconclusive: 109% |
| N/C(CCS(=O)(=O)c1ccc(Cl)cc1)=N\OC(=O)c1ccc(Cl)cc1 | inconclusive: 98.8% |
| CCOC(=O)CN1C(=O)CSc2ccc(S(=O)(=O)N3CCCC3)cc21 | inconclusive: 103% |
| CCOC(=O)N1CCC(N(CCN(C)C)C(=S)Nc2ccc(OCC)cc2)CC1 | inactive: 104% |
| Cn1c(CNC(=O)c2ccccc2F)nnc1SCCOc1ccccc1 | inconclusive: 82.8% |
| COc1ccccc1C1CCN(C(=O)c2cccc([N+](=O)[O-])c2)CC1 | inconclusive: 139% |
| O=C(/C=C/c1ccc(S(=O)(=O)N2CCOCC2)cc1)NC(=S)Nc1ccc(Cl)cc1Cl | inconclusive: 86.7% |

Random excerpt: 6 compounds from above.

| Structure (SMILES) | binding response (% of control) |
| --- | --- |
| O=C(COC(=O)c1cccnc1)Nc1ccc2c(c1)OCO2 | inactive: 104% |
| CCCN1CCC(NCc2cn(C)nc2-c2ccc(Oc3ccccc3)cc2)CC1 | inconclusive: 97.8% |
| O=C(Cc1ccc([N+](=O)[O-])cc1)c1ccc(O)cc1O | inconclusive: 109% |
| COc1ccc(C2/C=C\CN(C(=O)NC34CC5CC(CC(C5)C3)C4)CC(=O)N2Cc2ccc(F)cc2)cc1 (stereo not given) | inconclusive: 122% |
| CN(C(=S)NC(=O)c1ccc(Br)o1)c1ccccc1 | inactive: 89.7% |
| CC(C)CCNC(=O)C1CC(c2cccc(F)c2)=NO1 (stereo not given) | inconclusive: 73.5% |

Next part:

| Structure (SMILES) | binding response (% of control) |
| --- | --- |
| Brc1cccc(OCCSc2ncccn2)c1 | inconclusive: 109% |
| Cc1nnc(SC(C(=O)c2ccccc2)c2ccccc2)[nH]c1=O (stereo not given) | inconclusive: 106% |
| O=S(=O)(Cc1ccc(Cl)cc1)N1CCN(Cc2ccc3c(c2)OCO3)CC1 | inconclusive: 104% |
| COCCCn1c(=O)/c(=C\c2ccccc2OC(C)C)s/c1=C(/C#N)C(=O)Nc1ccc(C(=O)O)cc1 | inconclusive: 35.9% |
| O=C(CCN1C(=O)C2CCCCC2C1=O)Nc1nc(-c2ccccc2)cs1 (stereo not given) | inconclusive: 156% |
| CC(C)c1ccc(NC(=O)COc2ccc(C3SCCS3)cc2)cc1 | inconclusive: 135% |
| COc1ccc([N+](=O)[O-])cc1COc1cc(C)cc2oc(=O)cc(-c3ccccc3)c12 | inactive: 99.8% |
| COC(=O)c1ccc(COc2ccc(/C=N/Nc3nc(C)cc(=O)[nH]3)cc2)cc1 | inconclusive: 100% |
| COc1ccc(/C=N/NC(=O)c2ccccc2O)cc1Cn1cc([N+](=O)[O-])cn1 | inconclusive: 86.5% |
| Cc1ccc(NC(=O)COc2ccccc2[N+](=O)[O-])nc1 | inconclusive: 221% |
| O=C(N/N=C/c1c[nH]c2ccccc12)c1cc2ccccc2o1 | inconclusive: 103% |
| O=C(O)/C=C/C(=O)N1Cc2cc3ccccc3nc2C1 | inconclusive: -37.8% |
| COc1cc(CC(=O)Nc2ccc3nc(SC)sc3c2)cc(OC)c1OC | inconclusive: 102% |
| CCOC(=O)CN(C(=O)c1ccccc1[N+](=O)[O-])C(C)(C)C | inconclusive: -75.9% |
| COC(=O)c1cnc(Oc2ccc(NC(=O)NC(=O)c3ccccc3Cl)cc2)cc1C(F)(F)F | inconclusive: 87.3% |
| CC(C)COC(=O)n1c(SCC(N)=O)nc2ccccc21 | inconclusive: -7.86% |
| CCOC(=O)c1c[nH]c(=S)n1C | inconclusive: 224% |
| O=CNc1ccc(S(=O)(=O)NCc2ccccc2)cc1 | inactive: 103% |
| COc1ccc(CCNC(=O)C(=O)NCc2ccccc2C)cc1OC | inconclusive: 114% |
| COc1ccc(N2CCN(Cc3nc4c(c(=O)[nH]c(=O)n4C)n3Cc3cccc(Cl)c3)CC2)cc1 | inconclusive: 68.7% |
| Cc1ccc2nc3c(cc2c1)c(NC(=O)c1ccco1)nn3CC(C)C | inconclusive: 107% |
| CCOC(=O)Cc1nc(-c2cccc(C(F)(F)F)c2)no1 | inconclusive: 114% |
| Cc1ccc2oc(=O)n(CC(=O)N3CCOCC3)c2c1 | inconclusive: 108% |

| Structure (SMILES) | binding response (% of control) |
| --- | --- |
| Cc1ccc(-c2[nH]c3cc(C(=O)NCCCn4ccnc4)ccc3c(=O)c2O)cc1 | inconclusive: 85.5% |
| COc1cc(C2C(C#N)=C(N)Oc3cc(C)oc(=O)c32)cc(OC)c1OC (stereo not given) | inconclusive: 98.3% |
| N#CCC(=O)Nc1ccc(C(=O)OCC(=O)Nc2ccccc2-c2ccccc2)cc1 | inconclusive: 76.9% |
| COc1ccc(Cl)cc1N(CC(=O)N/N=C/c1ccc(OC(C)C)cc1)S(=O)(=O)c1ccc(C)c([N+](=O)[O-])c1 | inactive: 93.5% |
| CC12CN(NC(=O)c3ccccc3F)C3(C#N)CC1CCC23C (stereo not given) | inactive: 99% |
| CCCCCCCCCCCCC(NC(C)=O)(C(=O)OCC)C(=O)OCC | inconclusive: 25.6% |
| O=C(NCCN1CCOCC1)C(Sc1ccccc1)c1ccccc1 (stereo not given) | inconclusive: 94.2% |
| O=C(NNC(=O)c1cc2ccccc2o1)c1ccc(Cl)cc1 | inconclusive: 95.8% |
| CCOc1cc(Br)c(CC(=O)O)cc1OCC | inconclusive: 91.2% |
| COc1ccc(/C=C(\C#N)C(=O)OCCNC(=O)c2ccncc2)cc1 | inconclusive: 86.5% |
| CC1(C)C(=O)OC(/C=C/c2cccc([N+](=O)[O-])c2)C(C)(C)C1=O (stereo not given) | inconclusive: 116% |
| CN1CCN(NC(=O)c2cn(-c3ccccc3)nc2-c2cccc(Br)c2)CC1 | inconclusive: 112% |
| CCCCc1cc(=O)oc2cc(O)ccc12 | inactive: 97.1% |
| O=C(/C=C/c1ccc(F)cc1)N1CC[C@@]2(O)CCCC[C@H]2C1 | inconclusive: 131% |
| O=C(O)c1cccc(N2C(=O)CCC2=O)c1 | inconclusive: 96.2% |
| CC1=CCC2C(=O)N(c3ccc(S(N)(=O)=O)cc3)C(=O)C2C1 (stereo not given) | inconclusive: 96.9% |
| O=C(CN1c2ccccc2Sc2ccccc21)NNC(=O)Nc1ccc(Cl)cc1 | inconclusive: 119% |
| CN(C)c1ncc(/C=C2/C(=O)NC(=S)N(C3CCCCC3)C2=O)cn1 | inconclusive: 60% |
| Cc1ccc2c(c1)C(C)CC(C)(C)N2C(=O)CN1CCN(C)CC1 (stereo not given) | inconclusive: 107% |
| COc1ccc(CCNC(=O)Nc2ccc([N+](=O)[O-])cc2)cc1OC | inconclusive: 91.3% |
| COc1ccc(/C=C(/C(=O)c2ccc(Cl)cc2Cl)n2cncn2)cc1 | inactive: 104% |
| CCOC(=O)c1[nH]c(C)c(C(=O)Nc2ccccc2F)c1C | inactive: 127% |
| Cc1ccc(C)n1Cc1ccc(C(=O)O)cc1 | active: 48.8% |

| Structure (SMILES) | binding response (% of control) |
| --- | --- |
| CN(C)S(=O)(=O)c1ccc(NC(=O)COC(=O)Cn2[nH]c(=O)c3ccccc3c2=O)cc1 | inconclusive: 110% |
| Cc1cc(C)cc(OCC(=O)NNC(=O)c2ccoc2C)c1 | inactive: 99.5% |
| O=C(Nc1ccc(Oc2ncnc3cc(Cl)ccc23)nc1)Nc1cccc(C(F)(F)F)c1 | inconclusive: 93.5% |
| Cc1ccc(S(=O)(=O)N(C)C)cc1NC(=O)CCc1ccccc1 | inconclusive: -51.9% |
| Cc1ccc(S(=O)(=O)N(CC(=O)N(C)C)c2cccc([N+](=O)[O-])c2)cc1 | inconclusive: 98.1% |
| CCCCCn1c(SCc2cccc(C)c2)nc2c1c(=O)[nH]c(=O)n2C | inconclusive: 95.8% |
| CC(C)c1ccc(/C=C/c2ccc(=O)n(C)n2)cc1 | inconclusive: 108% |
| CCOP(=O)(OCC)/C(=N/OC(=O)c1ccc(Cl)cc1Cl)C(N)=O | inconclusive: 105% |
| Cc1ccc(C(=O)NCC(=O)O)o1 | inactive: 105% |
| COc1cc(OC)c2ccc(=O)oc2c1C(CC(=O)N1CCCC1)c1ccc(N(C)C)cc1 (stereo not given) | inconclusive: 106% |
| Cc1cc(C)c(NC(=O)COC(=O)Cc2ccsc2)c(C)c1 | inactive: 99.7% |
| CCNC(=S)NNC(=O)CSc1nc2ccccc2[nH]1 | inconclusive: 106% |
| CC(=O)Nc1nc2ccccc2n1Cc1ccccc1Cl | inconclusive: 103% |
| COCCN1C(=O)c2ccccc2C(C(=O)NCc2ccco2)C1c1c[nH]c2ccccc12 (stereo not given) | inactive: 101% |
| CC1CCCCC1NC(=O)COC(=O)CNC(=O)c1cccc(F)c1 (stereo not given) | inconclusive: 72.2% |
| COc1cc(NC(=O)CN2C(=O)CN(C)C2=O)c(C)cc1[N+](=O)[O-] | inconclusive: 101% |
| C=CCn1c(Oc2ccccc2)nc2c1c(=O)n(C)c(=O)n2C | inactive: 79.3% |
| Clc1ccc(/C(Cc2nc3ccccc3[nH]2)=N\Nc2ccccc2)cc1 | inactive: 98.9% |
| CC(=O)OC(C)CS(=O)(=O)c1ccccc1 (stereo not given) | active: 30.3% |
| CC(C)c1ccc(NS(=O)(=O)c2ccc(N3C(=O)CCC3=O)cc2)cc1 | inconclusive: 70.3% |
| Cc1ccccc1N1C(=O)C2ON(c3ccccc3)C(c3ccco3)C2C1=O (stereo not given) | inconclusive: 85.6% |
